Assay results from publication PMC9495560.
No constants are given. Whether binding was seen depends on the method and setting. In cells and extracts the contact can be indirect. Some binding calls cover weakened binding; strength is not graded here.

By UniProt entry, the sequences of proteins in these tests, tags left out. Residues count along the entry.
UniProt O95299, residues 36-355: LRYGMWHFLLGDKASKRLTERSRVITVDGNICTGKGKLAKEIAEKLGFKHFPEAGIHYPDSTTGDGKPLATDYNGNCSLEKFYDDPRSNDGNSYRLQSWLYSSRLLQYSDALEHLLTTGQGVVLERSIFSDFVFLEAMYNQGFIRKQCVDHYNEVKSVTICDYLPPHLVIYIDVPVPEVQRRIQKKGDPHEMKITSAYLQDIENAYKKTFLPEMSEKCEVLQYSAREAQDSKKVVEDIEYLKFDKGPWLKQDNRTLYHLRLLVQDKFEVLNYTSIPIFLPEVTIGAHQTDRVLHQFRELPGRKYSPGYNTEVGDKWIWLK

T1: Sideroflexin 1 (SFXN1) (human (endogenous in MCF7, COV434, HCT116, SH-SY5Y)) (UniProt Q9H9B4)
T1 sequence: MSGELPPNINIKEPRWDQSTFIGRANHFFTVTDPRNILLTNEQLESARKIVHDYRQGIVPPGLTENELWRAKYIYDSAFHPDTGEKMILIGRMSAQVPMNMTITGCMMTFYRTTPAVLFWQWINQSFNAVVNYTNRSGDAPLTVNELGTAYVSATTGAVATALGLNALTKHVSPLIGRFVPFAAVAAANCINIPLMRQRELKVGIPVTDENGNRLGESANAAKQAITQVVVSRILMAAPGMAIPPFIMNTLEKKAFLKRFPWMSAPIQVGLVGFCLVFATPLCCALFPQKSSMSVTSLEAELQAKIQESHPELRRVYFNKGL


What was measured:
[1] = biological target: T1, Sideroflexin 1 (SFXN1) (human (endogenous in MCF7, COV434, HCT116, SH-SY5Y)); test: co-IP; data not shown; told in the paragraph on immunoblots of SFXN1 immunoprecipitates
[2] = biological target: T1, Sideroflexin 1 (SFXN1) (human (endogenous in MCF7, COV434, HCT116, SH-SY5Y)); test: co-IP; endogenous SFXN1 precipitated with rabbit anti-SFXN1 from mitochondrial enriched fractions of MCF7, COV434, HCT116 and SH-SY5Y cells; immunoblot of the precipitate; rabbit IgG isotypic control
[3] = biological target: T1, Sideroflexin 1 (SFXN1) (human (endogenous in MCF7, COV434, HCT116, SH-SY5Y)); test: proximity ligation; Duolink In Situ Red kit on fixed, permeabilised MCF-7 cells; mouse anti-HSD10 and rabbit anti-SFXN1; control without primary antibodies

Molecule | binding [1] | binding [2] | binding [3]
NDUFA10 (from UniProt O95299 36-355) | binds |  | 
β subunit of the F1F0 ATPase (ATP5B) (from UniProt P06576 48-529) |  | no binding | 
17β-hydroxysteroid dehydrogenase (17β-HSD10) (protein, UniProt Q99714 1-261) MAAACRSVKGLVAVITGGASGLGLATAERLVGQGASAVLLDLPNSGGEAQAKKLGNNCVFAPADVTSEKDVQTALALAKGKFGRVDVAVNCAGIAVASKTYNLKKGQTHTLEDFQRVLDVNLMGTFNVIRLVAGEMGQNEPDQGGQRGVIINTASVAAFEGQVGQAAYSASKGGIVGMTLPIARDLAPIGIRVMTIAPGLFGTPLLTSLPEKVCNFLASQVPFPSRLGDPAEYAHLVQAIIENPFLNGEVIRLDGAIRMQP |  | binds | binds
